Measurements published in US7541032B2, “Antigen uptake receptor for Candida albicans on dendritic cells” (priority 2002, dated 2009).
No constants are given. Whether binding was seen depends on the method and setting. Some binding calls cover weakened binding; strength is not graded here. For part of these data: Tags and fused reporters may be left off the sequences shown.

Chains of the proteins cited; added tags and fusions are not shown.
UniProt Q9NNX6: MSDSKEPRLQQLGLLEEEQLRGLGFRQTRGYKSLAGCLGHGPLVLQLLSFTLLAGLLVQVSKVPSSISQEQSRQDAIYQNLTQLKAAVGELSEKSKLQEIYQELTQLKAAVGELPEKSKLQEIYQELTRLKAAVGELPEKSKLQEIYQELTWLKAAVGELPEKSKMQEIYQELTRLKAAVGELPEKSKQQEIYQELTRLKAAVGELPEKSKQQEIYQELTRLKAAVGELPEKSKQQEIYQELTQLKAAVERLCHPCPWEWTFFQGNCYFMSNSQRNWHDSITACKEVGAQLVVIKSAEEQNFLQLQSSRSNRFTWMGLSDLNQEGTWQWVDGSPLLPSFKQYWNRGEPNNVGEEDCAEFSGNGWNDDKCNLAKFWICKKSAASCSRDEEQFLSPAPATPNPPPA

What was measured:
[1] = target: DC-specific ICAM-grabbing non-integrin (DC-SIGN; CD209) (human) (UniProt Q9NNX6); assay: fluorescent beads adhesion assay, flow cytometry, K-SIGN cells
[2] = target: T1, Activated Leukocyte Cell Adhesion Molecule ALCAM (UniProt Q13740); assay: fluorescent beads adhesion assay, flow cytometry, K-ALCAM cells
T1 sequence (looked up): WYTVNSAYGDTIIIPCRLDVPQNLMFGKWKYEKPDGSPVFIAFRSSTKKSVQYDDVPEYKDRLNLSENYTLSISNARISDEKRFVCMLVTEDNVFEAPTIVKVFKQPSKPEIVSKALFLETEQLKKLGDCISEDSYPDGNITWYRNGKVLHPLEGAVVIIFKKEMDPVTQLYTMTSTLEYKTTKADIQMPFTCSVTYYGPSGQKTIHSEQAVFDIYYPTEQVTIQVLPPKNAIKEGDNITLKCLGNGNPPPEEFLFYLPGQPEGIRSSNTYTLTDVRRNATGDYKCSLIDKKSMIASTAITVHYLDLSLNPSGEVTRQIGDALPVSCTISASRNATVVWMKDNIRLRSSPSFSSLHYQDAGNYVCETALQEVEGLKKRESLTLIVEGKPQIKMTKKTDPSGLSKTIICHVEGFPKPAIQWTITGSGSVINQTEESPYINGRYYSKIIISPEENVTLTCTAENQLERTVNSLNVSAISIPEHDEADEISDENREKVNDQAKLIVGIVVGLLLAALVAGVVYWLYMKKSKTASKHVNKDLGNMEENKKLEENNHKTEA

[3] = target: DC-specific ICAM-grabbing non-integrin (DC-SIGN; CD209) (human) (UniProt Q9NNX6); assay: adhesion of monocyte-derived DC; assay not described

B1: ICAM-3-Fc (Fc fusion, UniProt P32942 30-485, looked up)
chain: QEFLLRVEPQNPVLSAGGSLFVNCSTDCPSSEKIALETSLSKELVASGMGWAAFNLSNVTGNSRILCSVYCNGSQITGSSNITVYRLPERVELAPLPPWQPVGQNFTLRCQVEDGSPRTSLTVVLLRWEEELSRQPAVEEPAEVTATVLASRDDHGAPFSCRTELDMQPQGLGLFVNTSAPRQLRTFVLPVTPPRLVAPRFLEVETSWPVDCTLDGLFPASEAQVYLALGDQMLNATVMNHGDTLTATATATARADQEGAREIVCNVTLGGERREARENLTVFSFLGPIVNLSEPTAHEGSTVTVSCMAGARVQVTLDGVPAAAPGQPAQLQLNATESDDGRSFFCSATLEVDGEFLHRNSSVQLRVLYGPKIDRATCPQHLKWKDKTRHVLQCQARGNPYPELRCLKEGSSREVPVGIPFFVNVTHNGTYQCQASSSRGKYTLVVVMDIEAGSSH
notes: Coated on carboxylate-modified TransFluorSpheres; also called ICAM-3-Fc coated beads; ICAM-3 fluorescent beads; not shown: Fc part
binding [1]: binds

B2: ALCAM-Fc (Fc fusion, UniProt Q13740 28-527, looked up, not shown: a dimerising Fc or GST)
chain: WYTVNSAYGDTIIIPCRLDVPQNLMFGKWKYEKPDGSPVFIAFRSSTKKSVQYDDVPEYKDRLNLSENYTLSISNARISDEKRFVCMLVTEDNVFEAPTIVKVFKQPSKPEIVSKALFLETEQLKKLGDCISEDSYPDGNITWYRNGKVLHPLEGAVVIIFKKEMDPVTQLYTMTSTLEYKTTKADIQMPFTCSVTYYGPSGQKTIHSEQAVFDIYYPTEQVTIQVLPPKNAIKEGDNITLKCLGNGNPPPEEFLFYLPGQPEGIRSSNTYTLTDVRRNATGDYKCSLIDKKSMIASTAITVHYLDLSLNPSGEVTRQIGDALPVSCTISASRNATVVWMKDNIRLRSSPSFSSLHYQDAGNYVCETALQEVEGLKKRESLTLIVEGKPQIKMTKKTDPSGLSKTIICHVEGFPKPAIQWTITGSGSVINQTEESPYINGRYYSKIIISPEENVTLTCTAENQLERTVNSLNVSAISIPEHDEADEISDENREKVNDQAK
binding [2]: binds

B3: ICAM-3 (ligand, UniProt P32942 30-485, looked up)
chain: QEFLLRVEPQNPVLSAGGSLFVNCSTDCPSSEKIALETSLSKELVASGMGWAAFNLSNVTGNSRILCSVYCNGSQITGSSNITVYRLPERVELAPLPPWQPVGQNFTLRCQVEDGSPRTSLTVVLLRWEEELSRQPAVEEPAEVTATVLASRDDHGAPFSCRTELDMQPQGLGLFVNTSAPRQLRTFVLPVTPPRLVAPRFLEVETSWPVDCTLDGLFPASEAQVYLALGDQMLNATVMNHGDTLTATATATARADQEGAREIVCNVTLGGERREARENLTVFSFLGPIVNLSEPTAHEGSTVTVSCMAGARVQVTLDGVPAAAPGQPAQLQLNATESDDGRSFFCSATLEVDGEFLHRNSSVQLRVLYGPKIDRATCPQHLKWKDKTRHVLQCQARGNPYPELRCLKEGSSREVPVGIPFFVNVTHNGTYQCQASSSRGKYTLVVVMDIEAGSSH
binding [3]: binds
